Measured values: patent publication US20070249808A1 (published 2007)

Columns and labels:
Test in all cases: cell-based or functional assay
[1] = biological target: Vβ17 T-cell receptor chains on human peripheral blood T cells (human)
[2] = biological target: Vβ6.7 T-cell receptor chains on human peripheral blood T cells (human)
[3] = biological target: Vβ21.3 T-cell receptor chains on human peripheral blood T cells (human)

B1: HERV-W ENV protein, full length (protein G), expressed in MHC class II+ transfectants (other)
chain: APPPCRCMTSSSPYQEFLWRMQRPGNIDAPSYRSLSKGTPTFTAHTHMPRNCYHSATLCMHANTHYWTGKMINPSCPGGLGVTVCWTYFTQTGMSDGGGVQDQAREKHVKEVISQLTRVHGTSSPYKGLDLSKLHETLRTHTRLVSLFNTTLTGLHEVSAQNPTNCWICLPLNFRPYVSIPVPEQWNNFSTEINTTSVLVGPLVSNLEITHTSNLTCVKFSNTTYTTNSQCIRWVTPPTQIVCLPSGIFFVCGTSAYRCLNGSSESMCFLSFLVPPMTIYTEQDLYSYVISKPRNKRVPILPFVIGAGVLGALGTGIGGITTSTQFYYKLSQELNGDMERVADSLVTLQDQLNSLAAVVLQNRRALDLLTAERGGTCLFLGEECCYYVNQSGIVTEKVKEIRDRIQRRAEELRNTGPWGLLSQWMPWILPFLGPLAAIILLLLFGPCIFNLLVNFVSSRIEAVKLQMEPKMQSKTKIYRRPLDRPASPRSDVNDIKGTPPEEISAAQPLLRPNSAGSS
fold increase of Vβ+ T cells after two weeks of stimulation by transfectants, donor 1 [1]: 3 fold | fold increase of Vβ+ T cells after two weeks of stimulation by transfectants, donor 2 [1]: 2.3 fold | fold increase of Vβ+ T cells after two weeks of stimulation by transfectants, donor 1 [2]: 1.7 fold | fold increase of Vβ+ T cells after two weeks of stimulation by transfectants, donor 2 [2]: 1.43 fold | fold increase of Vβ+ T cells after two weeks of stimulation by transfectants, donor 2 [3]: 2.18 fold
